According to PubChem BioAssay AID485314 (National Center for Advancing Translational Sciences (NCATS), 2010):
About 4,500 (1.3%) of roughly 340,000 compounds were called active. Inconclusive results, whose numbers are uncertain, are shown with a selection of clear calls. Calls come from the whole dose curve; as a rule, active = well fitted inhibition curve with a large enough effect; inconclusive = small, poorly fitted or top-dose-only effect, or another doubt; inactive = no such curve, though single readings can be large or run the other way. Potencies of inconclusive entries are doubtful fits and often do not repeat.

Each compound was assayed against DNA polymerase beta (Homo sapiens) (UniProt P06746) (assay: qHTS Assay for Inhibitors of DNA Polymerase Beta). Conditions: Pol beta primer extension/strand displacement, fluorescence kinetic; activity change, negative = inhibition: at 114 µM (top of the series).
Outline: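 Reaction started by 50 nM substrate onto compound-treated Pol beta (10 nM, 15 min preincubation, room temperature); plates read at 0 min and 10 min. Normalized concentration-effect data fitted by four-parameter Hill equation.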
% is set by controls: 0 for no effect and ±100 for the full control effect; potency is the fitted concentration of half-maximal effect.

Structure (SMILES)	Potency	activity change, negative = inhibition
Cc1ccc(C)c(NC(=O)c2cc(-c3cc(C)c(C)cc3O)n[nH]2)c1	inconclusive: 89.1 µM [inhibitor, single point]	
Cc1ccc2oc(-c3ccc(C)c(NC(=O)Cc4cccs4)c3)nc2c1	inconclusive: 4.47 µM [inhibitor, partial curve, poor fit]	
Cc1ccc(-n2cnc3cc(C(=O)NCc4ccccc4Cl)ccc32)c(C)c1		inactive: 4.86%
COc1ccc(CNC(=O)CCNS(=O)(=O)c2ccc(Br)s2)cc1	inconclusive: 89.1 µM [inhibitor, single point]	
CCOC(=O)c1cc(NC(=O)Nc2ccc(Br)cc2)c(C)nc1C		inactive: 0.246%
CCOC(=O)Cc1ccc(NC(=O)N2CC(C)Oc3ccc(Cl)cc32)cc1 (stereo unspecified)		inactive: 19.6%
O=C(Cc1cccs1)NCc1ccc(Cl)cc1	inconclusive: 89.1 µM [inhibitor, single point]	
CCC(C)(C)NC(=O)CN(Cc1ccc(OC)cc1)C(=O)CCC(=O)Nc1nccs1		inactive: 0.548%
O=S(=O)(Nc1cc(F)ccc1F)c1cccc2nonc12	inconclusive: 20 µM [inhibitor, full curve]	
COc1ccc(/C=C/C(=O)NCC(=O)N/N=C/c2cccs2)cc1	inconclusive: 50.1 µM [inhibitor, partial curve]	
CCN1CCN(CCCN(Cc2ccco2)C(=S)Nc2ccc(Cl)cc2)CC1	inconclusive: 89.1 µM [inhibitor, single point]	
C=CCN(CC=C)C(=O)CN1C(=O)c2ccccc2C1=O	inconclusive: 89.1 µM [inhibitor, single point]	
Cc1ccc(NC(=O)N/C=C/c2ccco2)cc1	active: 22.4 µM	
Cc1ccc(CNC(=O)CN(c2cc(C)cc(C)c2)S(=O)(=O)c2c(C)noc2C)cc1		inactive: 33.4%
N#Cc1cc2[nH]c3ccccc3c2[n+](-c2ccc([N+](=O)[O-])cc2)c1N	inconclusive: 50.1 µM [inhibitor, partial curve]	
CN1C(=O)NC(c2ccccc2)C2=C1CN(c1ccc3ccccc3c1)C2=O (stereo unspecified)		inactive: -9.52%
O=C(CCC1N=C2c3ccccc3N=C(SCc3ccc(F)cc3)N2C1=O)NCc1ccco1 (stereo unspecified)	inconclusive: 15.8 µM [inhibitor, full curve, poor fit]	
CCc1ccc2ncc3c(-c4ccc(C)cc4)nn(CC(=O)Nc4ccc(C)cc4)c3c2c1		inactive: -17.4%
CCOC(=O)n1cc(-c2cnc(CNC(=O)C(C)(c3ccccc3)c3ccccc3)o2)c2ccccc21	inconclusive: 79.4 µM [inhibitor, single point]	
CC(C)Cn1c(SCC(=O)NC2CCCc3ccccc32)nc(O)cc1=O (stereo unspecified)	inconclusive: 100 µM [inhibitor, single point]	
O=C(NC1CCCCCC1)C1Cc2ccccc2CN1C(=O)c1ccco1 (stereo unspecified)	inconclusive: 0.158 µM [inhibitor, full curve, poor fit]	
COC(=O)c1cc2occc2n1Cc1nc(-c2cccc(Br)c2)oc1C		inactive: 2.25%
Cc1ccn2c(Nc3ccc4c(c3)OCO4)c(-c3ccccn3)nc2c1	inconclusive: 14.1 µM [inhibitor, single point]	
Cc1cc(C)n2nc(C(=O)Nc3ccc4c(c3)OCO4)nc2n1	inconclusive: 35.5 µM [inhibitor, full curve]	

Structure (SMILES)	Potency	activity change, negative = inhibition
O=C(Nc1cccc(S(=O)(=O)NCc2ccco2)c1)c1cc(-c2ccccc2)nc2ccccc12	inconclusive: 50.1 µM [inhibitor, partial curve]	
Cc1ccc(C(=O)Nc2ccccc2C(=O)O)cc1NC(=O)COc1c(C)cccc1C	inconclusive: 22.4 µM [inhibitor, single point]	
Cc1cc(C)c2sc(N3CCN(C(=O)C4CC4)CC3)nc2c1		inactive: -7.25%
CC(C)OCCCNC(=O)CSc1c2c(nc3ccc(Cl)cc13)CCCC2		inactive: 18.1%
Cc1noc(C)c1COC(=O)c1cc(=O)[nH]c2ccccc12	inconclusive: 3.55 µM [inhibitor, single point]	
Cc1nc(-n2nc(C)c(CCC(C)C)c2C)sc1C(=O)Nc1ccc(Br)cc1		inactive: 18.9%
CCn1c(SCC(=O)Nc2ccc(C(C)=O)cc2)nc2c([nH]c3ccccc32)c1=O	inconclusive: 0.251 µM [inhibitor, full curve, poor fit]	
Cc1ccc(NC(=O)CCC(=O)OCC(F)(F)C(F)F)cc1	inconclusive: 89.1 µM [inhibitor, single point]	
COc1ccc(C(=O)Nc2ccccc2-c2nc3ccccc3s2)c(OC)c1		inactive: -14.4%
CCCCOc1ccc(/C=C/C(=O)Nc2ccc([N+](=O)[O-])cc2C)cc1		inactive: 13.5%
COc1cc(/C=N/Nc2ccccn2)ccc1OCC(C)C	inconclusive: 17.8 µM [inhibitor, single point]	
COc1ccc2c(c1)c(/C=C/c1cc[n+](C)cc1)cn2C	active: 89.1 µM	
COCCCNC(=O)N1c2ccccc2Sc2ccccc21	inconclusive: 39.8 µM [inhibitor, single point]	
O=c1[nH]c(Cc2cccs2)nc2scc(-c3ccc(Cl)cc3)c12	inconclusive: 70.8 µM [inhibitor, single point]	
O=C1/C(=C2\C(=O)N(Cc3ccc(F)cc3)c3ccccc32)SC(=S)N1CCS(=O)(=O)O	inconclusive: 39.8 µM [inhibitor, partial curve]	
COc1ccc(C2C(C#N)=C(N)Oc3c2c(C)nn3-c2ccccc2)cc1Cn1nc(C)c([N+](=O)[O-])c1C (stereo unspecified)		inactive: -1.43%
Fc1ccc(N2CCN(Cc3cccn3-c3nnc(N4CCN(C5CCCCC5)CC4)s3)CC2)cc1		inactive: 21.5%
COc1ccc(OC)c(NC(=O)Cc2cccs2)c1	active: 50.1 µM	
CCN1CCN(c2ccc(NC(=O)c3cc(OC)c(OC)c(OC)c3)cc2)CC1	inconclusive: 7.94 µM [inhibitor, partial curve]	
O=C(O)CCC(=O)Nc1nc2ccccc2s1	inconclusive: 100 µM [inhibitor, partial curve]	
Cc1nc2c(c(C)nn2-c2ccccc2)c(C)c1CCC(=O)NCCc1ccc(Cl)cc1		inactive: 1.97%
CCOC(=O)C1C2C=CC3(CN(C4CCCC4)C(=O)C13)O2 (stereo unspecified)	inconclusive: 89.1 µM [inhibitor, single point]	
O=C(CCc1nnc2ccc(NCc3ccco3)nn12)Nc1ccccn1	inconclusive: 25.1 µM [inhibitor, full curve]	
Cc1ccc(/C=C/C(=O)OCC(=O)NCCN2C(=O)CSC2=O)o1	inconclusive: 89.1 µM [inhibitor, single point]	

Structure (SMILES)	Potency	activity change, negative = inhibition
CCOC(=O)c1sc2ncnc(NCc3ccco3)c2c1C	inconclusive: 20 µM [inhibitor, partial curve, poor fit]	
O=C1c2ccccc2-c2onc3c(N4CCN(CCO)CC4)cc(N4CCN(C(=O)c5ccco5)CC4)c1c23		inactive: -1.43%
O=C(Nc1ccc(S(=O)(=O)N2CCOCC2)cc1)c1ccc(=O)[nH]c1	active: 12.6 µM	
O=C(/C=C/c1c(F)cccc1Cl)c1ccc(O)cc1		inactive: -0.0249%
NS(=O)(=O)c1ccc(NC(=O)CSc2nc3ccccc3[nH]2)cc1	inconclusive: 1.26 µM [inhibitor, full curve, poor fit]	
O=C(O)c1ccc(CS(=O)(=O)c2c(Cl)cccc2Cl)o1	inconclusive: 70.8 µM [inhibitor, single point]	
Cc1ccccc1-n1sc2cc(F)ccc2c1=O		inactive: 13.6%
CCn1cc(C(=O)O)c(=O)c2cc(F)c(N/N=C/c3ccccc3[N+](=O)[O-])cc21	inconclusive: 31.6 µM [inhibitor, partial curve]	
O=C(CN1CCCCCCC1)N/N=C/c1ccc([N+](=O)[O-])o1	inconclusive: 63.1 µM [inhibitor, single point]	
CC1CC1c1ccc(/C=C(\C#N)C(=O)Nc2ccccc2Cl)o1 (stereo unspecified)	inconclusive: 89.1 µM [inhibitor, single point]	
CCCCN(CC)C(=O)c1c[nH]c2ccc(S(=O)(=O)Nc3cccc(OC)c3)cc2c1=O	inconclusive: 25.1 µM [inhibitor, partial curve]	
O=C(N/N=C/c1ccco1)C1CC1c1ccccc1 (stereo unspecified)	active: 15.8 µM	
COc1ccc(NC(=O)CC2Nc3cccc4cccc(c34)NC2=O)cc1 (stereo unspecified)	inconclusive: 89.1 µM [inhibitor, single point]	
COc1ccc(S(=O)(=O)N2CCC(C(=O)Nc3cccc(C(C)=O)c3)CC2)cc1C	inconclusive: 89.1 µM [inhibitor, single point]	
O=C(CCCn1c(=O)c2cccn2c2ccccc21)Nc1cccc(Cl)c1	active: 44.7 µM	
Clc1ccccc1CSc1nncn2c1cc1occc12		inactive: 3.29%
Nc1ccc(C(CC(=O)O)n2cccc2)cc1 (stereo unspecified)	inconclusive: 20 µM [inhibitor, partial curve]	
O=[N+]([O-])c1ccc(N/N=C/c2ccc(O)c(O)c2O)c(S(=O)(=O)N2CCOCC2)c1	inconclusive: 4.47 µM [inhibitor, full curve]	
CCCc1nn2c(=O)cc(COC(=O)c3ccccc3NC(=O)C3CCCCC3)nc2s1		inactive: -1.75%
COC(=O)c1c(C)sc(-c2c(-c3ccc(F)cc3)[nH]c3[nH]c(=O)[nH]c(=O)c23)c1O	active: 56.2 µM	
COC(=O)Nc1nnc(Cc2ccccc2)s1	inconclusive: 89.1 µM [inhibitor, single point]	
O=C(O)c1cccc(NC(=O)c2cc(S(=O)(=O)N3CCOCC3)cs2)c1	inconclusive: 31.6 µM [inhibitor, partial curve]	
CCN1CCN(CCCNC(=O)c2ccc(CS(=O)c3ccc(Br)cc3)o2)CC1 (stereo unspecified)	inconclusive: 0.447 µM [inhibitor, partial curve, poor fit]	

Copied from above, 5 compounds:
Structure (SMILES)	Potency	activity change, negative = inhibition
Clc1ccccc1CSc1nncn2c1cc1occc12		inactive: 3.29%
Nc1ccc(C(CC(=O)O)n2cccc2)cc1 (stereo unspecified)	inconclusive: 20 µM [inhibitor, partial curve]	
O=[N+]([O-])c1ccc(N/N=C/c2ccc(O)c(O)c2O)c(S(=O)(=O)N2CCOCC2)c1	inconclusive: 4.47 µM [inhibitor, full curve]	
CCCc1nn2c(=O)cc(COC(=O)c3ccccc3NC(=O)C3CCCCC3)nc2s1		inactive: -1.75%
COC(=O)c1c(C)sc(-c2c(-c3ccc(F)cc3)[nH]c3[nH]c(=O)[nH]c(=O)c23)c1O	active: 56.2 µM	
